# Data: PubChem BioAssay AID504467 (National Center for Advancing Translational Sciences (NCATS), 2011)
# Among all 330,000 compounds or so, about 7,700 (2.3%) were called active. This list was built around the results that the source calls inconclusive (neither active nor inactive); the mix of calls is not that of the screen. The call rests on the fitted dose curve; in most records, active means well fitted inhibition curve with a large enough effect; inconclusive means small, poorly fitted or top-dose-only effect, or effect the other way; inactive means flat fitted curve, though single readings scatter. Potencies beside an inconclusive call are fits to weak or partial responses and may not hold up.
# Experiment: qHTS screen for small molecules that inhibit ELG1-dependent DNA repair in human embryonic kidney (HEK293T) cells expressing luciferase-tagged ELG1; further: nearly all actives have a fitted effect of over 55% in size
# Conditions: HEK293T ELG1-luciferase reporter, luminescence, 16 h, DNA damage induced by 5-fluorouridine; activity change, negative = inhibition: at 46.1 µM (top of the series)
# How it was run: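 Step one: seed 2,000 cells per well. Step two: pin-transfer compound or DMSO alongside 5-fluorouridine. Step three: incubate 16 hr, 37 °C, 5% CO2. Step four: add ONE-Glo, wait 30 min, read luminescence.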
# On the % scale 0 is the no-effect control and ±100 the full control effect; potency means the concentration at half of the fitted maximal effect.
SMILES,Potency,"activity change, negative = inhibition"
O=C(Nc1ccc(NC(=O)C2CC2)cn1)c1ccccc1,"inconclusive: 1.83 µM [activator, partial curve]",–
COc1ccccc1N1CCN(C(=O)CN(Cc2ccccc2)S(C)(=O)=O)CC1,"inconclusive: 8.2 µM [inhibitor, single point]",–
CC1Sc2ccc(C(=O)NCc3cccc(C(F)(F)F)c3)cc2NC1=O (centres undefined),–,inactive: 0.0983%
Cc1ccc(-c2nnc(-c3cccc(Br)c3)o2)cc1,"inconclusive: 14.6 µM [activator, partial curve]",–
COc1ccccc1-c1nc2cc3ccccc3cc2nc1-c1ccccc1,"inconclusive: 8.2 µM [inhibitor, partial curve, poor fit]",–
COc1ccc(N2CCN(C(=O)CCNS(=O)(=O)c3cc(Br)cnc3N)CC2)cc1,"inconclusive: 20.6 µM [inhibitor, single point]",–
COc1ccc(NC(=O)c2[nH]c(C)c(C(C)=O)c2C)cc1Cl,"inconclusive: 18.4 µM [activator, single point]",–
Cc1cc(NC(=O)c2ccccc2F)cc(C)c1OCC(=O)N1CCOCC1,"inconclusive: 16.4 µM [activator, single point]",–
Cc1cc(C)c(C(=O)CSc2nc3ccccc3c(=O)[nH]2)cc1C,"inconclusive: 29.1 µM [inhibitor, single point]",–
Cc1[nH]c(=O)[nH]c(=O)c1/C=N/NC(=O)CCCCCNC(=O)OC(C)(C)C,–,inactive: 1.14%
CCC(=O)Nc1ccc(-c2cc3ccccc3oc2=O)cc1,"inconclusive: 2.31 µM [activator, full curve]",–
CC1CCN(c2ccc3nnc(CCC(=O)N4CCN(c5ccc(F)cc5)CC4)n3n2)CC1,"inconclusive: 18.3 µM [inhibitor, single point]",–
CCCCNc1c(-c2cccc(-c3cc(C(C)=O)cs3)c2)nc2cc(C)ccn12,"inconclusive: 8.91 µM [inhibitor, single point]",–
O=C1CS/C(=N/N=C2C3CC4CC(C3)CC2C4)N1,–,inactive: 14.4%
CC(C)CCNC(=S)Nc1ccc(Br)cc1,"inconclusive: 23.1 µM [activator, single point]",–
O=S1(=O)N=C(N2CCN(c3ccc(F)cc3)CC2)c2ccccc21,"inconclusive: 23.1 µM [activator, single point]",–
COc1ccccc1-c1oc2ccccc2c1C#CCCCCO,"inconclusive: 18.3 µM [inhibitor, single point]",–
CCc1ccc2n(-c3ccc(OC)cc3)c([S-])c(C(=O)Nc3cc(C)cc(C)c3)[n+]2c1,"inconclusive: 29.1 µM [activator, single point]",–
CCCn1nnc(NC(=O)c2cccc(Cl)c2)n1,"inconclusive: 7.08 µM [activator, partial curve, poor fit]",–
Cc1cc(C)c2nc(-c3ccccn3)cc(C(=O)n3cccn3)c2c1,–,inactive: -8.15%
CCOC(=O)CSc1nc2c(sc(=S)n2-c2ccc(OCC)cc2)c(=O)[nH]1,active: 20.6 µM,–
Cc1ccc(C(=O)NCC(=O)N2CCC(Cc3ccccc3)CC2)cc1,–,inactive: -0.336%
Cc1nc(-c2ccc(NC(=O)C(C)(C)C)cc2)c(-c2ccccc2)o1,"inconclusive: 20.6 µM [inhibitor, partial curve]",–

SMILES,Potency,"activity change, negative = inhibition"
O=C(Nc1ccccc1Br)c1cc(=O)c2ccccc2o1,"inconclusive: 14.6 µM [activator, partial curve]",–
CCCN(CCC)C(=O)CSc1nc2n[nH]c(C)c2c(=N)n1-c1ccc(OCC)cc1,"inconclusive: 25.9 µM [inhibitor, single point]",–
Cc1c(OCC(=O)NCCN2CCOCC2)ccc2c1oc(=O)c1ccccc12,"inconclusive: 18.3 µM [inhibitor, single point]",–
Cc1ccccc1Nc1nc(N)nc(COC(=O)CCS(=O)(=O)c2ccc(Cl)cc2)n1,"inconclusive: 18.3 µM [activator, single point]",–
O=C(/C=C/c1ccccc1)NC(NC(=S)Nc1cc(Cl)ccc1Cl)C(Cl)(Cl)Cl (centres undefined),–,inactive: -1.93%
COc1ccc(-c2cc3nc4ccccc4n3c(N)c2C#N)cc1,"inconclusive: 5.8 µM [activator, full curve]",–
c1ccc2c(C3=NNC(=NC4CC4)SC3)c[nH]c2c1,"inconclusive: 2.91 µM [activator, partial curve]",–
COc1ccccc1N1CCN(CC(=O)Nc2cc(F)ccc2C)CC1,"inconclusive: 25.9 µM [inhibitor, single point]",–
O=C(CCl)N1c2ccccc2SCC1c1ccccc1 (centres undefined),"inconclusive: 29.1 µM [inhibitor, single point]",–
CC(C)(C)c1ccc(C(=O)NNC(=O)c2ccccc2Br)cc1,"inconclusive: 14.6 µM [activator, partial curve, poor fit]",–
Cc1ccc(OCC(=O)N2CC(C)CC(C)C2)c([N+](=O)[O-])n1 (centres undefined),–,inactive: -0.6%
CCOC(=O)c1c(/N=C/C2C(=O)CCCC2=O)sc2c1CCCC2,"inconclusive: 25.9 µM [activator, single point]",–
CC(=O)NCCc1ccc(C(=O)COC(=O)c2ccco2)cc1,"inconclusive: 16.4 µM [activator, partial curve]",–
Cc1cccc(N(C)S(=O)(=O)c2ccc3[nH]cc(C(=O)N4CCOCC4)c(=O)c3c2)c1,–,inactive: 1.49%
C/C(CS(=O)(=O)c1ccc(Cl)c(Cl)c1)=N/NC(N)=S,"inconclusive: 18.3 µM [inhibitor, partial curve, poor fit]",–
S=C(NCCc1ccccc1)N1CCN(C(=S)NCCc2ccccc2)CC1,"inconclusive: 29.1 µM [activator, single point]",–
C=CCn1c2ccccc2c2nn(C)c(=S)nc21,–,inactive: -4.75%
N#CCc1ccc(NC(=O)c2ccc(S(=O)(=O)N3CCCC3)cc2)cc1,active: 20.6 µM,–
Cn1cnc2c1c(=O)n(Cc1cccc(F)c1)c(=O)n2C,–,inactive: -7%
Cc1ccc(-c2csc(N(C)C(=O)c3c(C)nn(-c4ccccc4)c3Cl)n2)cc1,"inconclusive: 20.6 µM [inhibitor, single point]",–
COc1ccc2[nH]c(C(=O)N3CCN(c4ccccc4F)CC3)c(C)c2c1,"inconclusive: 29.1 µM [inhibitor, single point]",–
O=C(c1cn(-c2ccccc2)nc1-c1cccs1)N1CCN(c2ccccn2)CC1,"inconclusive: 35.5 µM [inhibitor, single point]",–
O=C(Nc1nc(-c2ccc(S(=O)(=O)N3CCCCCC3)cc2)cs1)c1ccccc1,active: 7.31 µM,–

SMILES,Potency,"activity change, negative = inhibition"
Cc1nc2ccccc2n1CCc1nc2c3ccccc3nc(=S)n2[nH]1,–,inactive: 4.33%
O=C(NC(=S)Nc1cccc(Cl)c1N1CCCCC1)c1ccco1,"inconclusive: 0.651 µM [inhibitor, full curve, poor fit]",–
COc1ccc(/C=C2\CCc3ccccc3C2=O)cc1CN1CCOCC1,"inconclusive: 11.6 µM [activator, partial curve]",–
CCOc1ccc(NC(=O)CSc2nc3ccccc3nc2N2CCOCC2)cc1,"inconclusive: 13 µM [inhibitor, partial curve, poor fit]",–
Cc1cc(C)c(NC(=O)CNC(=O)COC(=O)/C=C/c2cccs2)c(C)c1,"inconclusive: 4.11 µM [activator, single point]",–
Oc1c(Br)cc(/C=N/Nc2nncc3ccccc23)cc1Br,"inconclusive: 18.3 µM [activator, partial curve]",–
CCc1noc(C)c1C(=O)OCC(=O)N(C)c1c(N)n(Cc2ccccc2)c(=O)[nH]c1=O,–,inactive: -3.41%
CN(C)C(=O)c1ccc(-c2nnc(NCc3ccccc3)c3ccccc23)cc1,"inconclusive: 23.1 µM [inhibitor, single point]",–
O=C(NNC(=O)c1cccc(S(=O)(=O)N2CCN(c3ccccc3)CC2)c1)c1ccc(Cl)cc1,–,inactive: -12.3%
CCc1ccc(NC(=O)CSc2nnc(-c3cnccn3)n2Cc2ccco2)cc1,–,inactive: -6.25%
Cc1ccc(S(=O)(=O)N2CCCN(S(=O)(=O)c3ccc(C)cc3)CC2)cc1,"inconclusive: 16.4 µM [inhibitor, single point]",–
COc1ccc(C)cc1S(=O)(=O)N(C)CC(=O)NCc1ccccn1,–,inactive: 6.32%
CC(C(=O)c1ccc(-c2ccccc2)cc1)[n+]1cccc(NC(=O)c2ccccc2)c1 (centres undefined),–,inactive: 1.09%
COC(=O)c1cccc(NC(=O)NC2CCCN2S(=O)(=O)c2ccc(Cl)cc2)c1 (centres undefined),"inconclusive: 5.8 µM [inhibitor, single point]",–
CCOc1ccc(C(=O)NCC(=O)N2CCC3(CC2)NCCc2[nH]cnc23)cc1,–,inactive: 18.3%
CC1(C)S[C@@H]2[C@H](NC(=O)C(NC(=O)N3CCNC3=O)c3ccccc3)C(=O)N2[C@H]1C(=O)O (some centres undefined),–,inactive: 0%
CCN(CC)c1ccc2cc(C(N)=O)c(=O)oc2c1,"inconclusive: 14.6 µM [activator, partial curve]",–
Cc1ccc(C)c(C(=O)COC(=O)Cn2[nH]c(=O)c3ccccc3c2=O)c1,–,inactive: -0.316%
Cc1c(NC(=S)NC(NC(=O)CC(C)C)C(Cl)(Cl)Cl)c(=O)n(-c2ccccc2)n1C (centres undefined),–,inactive: -3.03%
O=C(Nc1cccc(Cl)c1)c1ccc2ncsc2c1,"inconclusive: 20.6 µM [activator, partial curve]",–
Cc1ccc(CSc2nccc(-c3c(C)nc4ccccn34)n2)cc1,active: 14.6 µM,–
CCCC(=O)Nc1cccc(NC(=O)c2ccc(C)c([N+](=O)[O-])c2)c1,"inconclusive: 23.1 µM [inhibitor, partial curve, poor fit]",–
CCCCCCC(=O)N(O)C1CC(=O)N(c2ccccc2)C1=O (centres undefined),"inconclusive: 29.1 µM [activator, single point]",–

# Some values from the results shown.
# Cc1cc(NC(=O)c2ccccc2F)cc(C)c1OCC(=O)N1CCOCC1 – Potency: inconclusive: 16.4 µM [activator, single point]
# CCCCNc1c(-c2cccc(-c3cc(C(C)=O)cs3)c2)nc2cc(C)ccn12 – Potency: inconclusive: 8.91 µM [inhibitor, single point]
# O=C(Nc1nc(-c2ccc(S(=O)(=O)N3CCCCCC3)cc2)cs1)c1ccccc1 – Potency: active: 7.31 µM
# Cc1cc(C)c2nc(-c3ccccn3)cc(C(=O)n3cccn3)c2c1 – activity change, negative = inhibition: inactive: -8.15%
